Measurements taken from patent US10494341B2, “Compound containing indoleacetic acid core structure and use thereof” (Beijing An Jian Xi Bio-Medical Technology Co., Ltd., priority 2015, dated 2019).
Some entries share one result that the patent states for a list of compounds. At least one compound was matched to its structure with a doubt left.

Test system: SW480 cells
Test: Measurement of cellular uptake of compounds (HPLC of intermediate I)
Assay type: in vitro ADME
Conditions: 10 μM, 37° C., 1-12 hours

`COc1ccc2c(CC(=O)OCCCCCCCCCCc3c(C)c(O)c(OC)c(OC)c3O)c(C)n(C(=O)c3ccc(Cl)cc3)c2c1` [compound b] was tested, and the “ability to enter cells, compared with intermediate I” value was “at least 6 times”.
